Measured values from publication PMC10762002.
No constants are given. Whether binding was seen depends on the method and setting. Binding seen in cells or lysates may run through a third protein. These calls come from enrichment with a bait or labelling near it, and not all partners need be listed.

Tests used:
[1] = biological target: ApoL6-HA overexpressed in differentiated 3T3-L1 adipocytes (mouse); assay: affinity purification with mass spectrometry; lysates cross-linked with NHS-Diazirine (SDA); lysis buffer 10 mM HEPES, 1 mM EDTA, pH 7.4, 1% DDM; IP with HA magnetic beads from LD-associated proteins of adipoQ-ApoL6 TG WAT or lysates of 3T3-L1 adipocytes overexpressing ApoL6-HA; MS of the purified proteins
[2] = biological target: HA-tagged ApoL6 (adipoQ-ApoL6 TG mice) (mouse); assay: as above

- binding [1]: binds
- binding [2]: binds
B1: endogenous Perilipin 1 (Plin1) (protein, UniProt Q8CGN5 1-517)
chain: MSMNKGPTLLDGDLPEQENVLQRVLQLPVVSGTCECFQKTYNSTKEAHPLVASVCNAYEKGVQGASNLAAWSMEPVVRRLSTQFTAANELACRGLDHLEEKIPALQYPPEKIASELKGTISTRLRSARNSISVPIASTSDKVLGATLAGCELALGMAKETAEYAANTRVGRLASGGADLALGSIEKVVEFLLPPDKESAPSSGRQRTQKAPKAKPSLVRRVSTLANTLSRHTMQTTAWALKQGHSLAMWIPGVAPLSSLAQWGASAAMQVVSRRQSEVRVPWLHNLAASQDESHDDQTDTEGEETDDEEEEEESEAEENVLREVTALPNPRGLLGGVVHTVQNTLRNTISAVTWAPAAVLGTVGRILHLTPAQAVSSTKGRAMSLSDALKGVTDNVVDTVVHYVPLPRLSLMEPESEFRDIDNPSAEAERKGSGARPASPESTPRPGQPRGSLRSVRGLSAPSCPGLDDKTEASARPGFLAMPREKPARRVSDSFFRPSVMEPILGRAQYSQLRKKS
